Results are given in words; binding and its absence hold for the method and conditions named. For some of these results: Binding seen in cells or lysates may run through a third protein. Some results given as binding are weak or reduced against the parent protein; the word gives no strength.
Legend:
[1] = target: HA-tagged SLC7A11 overexpressed in H522 lung adenocarcinoma cells (UniProt Q9UPY5); experiment: immunoprecipitation of HA-SLC7A11 or OTUB1 and Western blot, H522 cells (FIG. 5A)
[2] = target: HA-tagged SLC7A11 overexpressed in H522 lung adenocarcinoma cells (UniProt Q9UPY5); experiment: anti-HA immunoprecipitation and Western blot, H522 cells (figure legend)
[3] = target: HA-tagged SLC7A11 overexpressed in H522 lung adenocarcinoma cells (UniProt Q9UPY5); experiment: anti-HA immunoprecipitation and SLC3A2 blot, H522 cells overexpressing SLC7A11-HA and OTUB1-C212S, compared with OTUB1-WT (FIG. 7F)
[4] = target: HA-tagged SLC7A11 overexpressed in H522 lung adenocarcinoma cells (UniProt Q9UPY5); experiment: immunoprecipitation and Western blot, H522 cells (figure legend)
[5] = target: HA-tagged SLC7A11 overexpressed in H522 lung adenocarcinoma cells (UniProt Q9UPY5); experiment: anti-HA immunoprecipitation and SLC3A2 blot, H522 cells overexpressing SLC7A11-HA and OTUB1-C204S, compared with OTUB1-WT (FIG. 7E)
[6] = target: HA-tagged SLC7A11 overexpressed in H522 lung adenocarcinoma cells (UniProt Q9UPY5); experiment: anti-HA immunoprecipitation and SLC3A2 blot, H522 cells overexpressing SLC7A11-HA and OTUB1-C23S, compared with OTUB1-WT (FIG. 7E)
[7] = target: HA-tagged SLC7A11 overexpressed in H522 lung adenocarcinoma cells (UniProt Q9UPY5); experiment: anti-HA immunoprecipitation and SLC3A2 blot, H522 cells overexpressing SLC7A11-HA and OTUB1-C91S, compared with OTUB1-WT (FIG. 7F)
[8] = target: T1, solute carrier family 7 member 11 (SLC7A11), endogenous in mouse tracheal epithelial (MTE) cells (mouse) (UniProt Q9WTR6); experiment: non-reducing Western blot, 2D PAGE and co-immunoprecipitation, MTE cells (figure legend)
T1 sequence (looked up): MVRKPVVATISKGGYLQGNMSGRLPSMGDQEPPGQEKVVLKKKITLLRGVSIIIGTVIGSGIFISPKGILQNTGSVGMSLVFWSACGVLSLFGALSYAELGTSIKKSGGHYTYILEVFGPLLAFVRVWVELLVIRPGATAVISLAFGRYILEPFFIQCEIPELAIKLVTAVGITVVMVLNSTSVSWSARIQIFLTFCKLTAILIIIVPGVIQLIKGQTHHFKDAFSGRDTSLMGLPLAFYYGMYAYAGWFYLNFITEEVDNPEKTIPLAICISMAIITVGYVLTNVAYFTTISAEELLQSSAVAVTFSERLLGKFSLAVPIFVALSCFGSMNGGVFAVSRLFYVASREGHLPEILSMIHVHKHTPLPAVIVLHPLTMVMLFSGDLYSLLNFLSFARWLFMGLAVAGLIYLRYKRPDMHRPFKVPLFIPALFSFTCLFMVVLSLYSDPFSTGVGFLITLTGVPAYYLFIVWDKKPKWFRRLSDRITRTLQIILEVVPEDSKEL

Chains of the proteins cited; added tags and fusions are not shown. Lines headed by an entry give the natural chain unless they say otherwise; changes in a name come on top. Residues count along the entry.
UniProt Q9UPY5: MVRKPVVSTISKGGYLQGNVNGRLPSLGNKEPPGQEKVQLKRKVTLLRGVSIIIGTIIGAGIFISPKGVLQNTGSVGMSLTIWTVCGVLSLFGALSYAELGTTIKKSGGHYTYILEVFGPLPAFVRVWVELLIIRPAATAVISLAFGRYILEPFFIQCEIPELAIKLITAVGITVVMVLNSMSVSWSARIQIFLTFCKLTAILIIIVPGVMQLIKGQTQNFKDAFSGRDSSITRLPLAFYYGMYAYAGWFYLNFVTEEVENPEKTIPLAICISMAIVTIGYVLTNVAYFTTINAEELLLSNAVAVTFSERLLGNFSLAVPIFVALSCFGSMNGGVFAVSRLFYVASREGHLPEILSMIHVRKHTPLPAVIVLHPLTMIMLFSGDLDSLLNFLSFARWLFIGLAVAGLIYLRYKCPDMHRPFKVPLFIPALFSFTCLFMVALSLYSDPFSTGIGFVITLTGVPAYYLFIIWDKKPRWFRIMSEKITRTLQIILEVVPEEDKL
UniProt Q96FW1: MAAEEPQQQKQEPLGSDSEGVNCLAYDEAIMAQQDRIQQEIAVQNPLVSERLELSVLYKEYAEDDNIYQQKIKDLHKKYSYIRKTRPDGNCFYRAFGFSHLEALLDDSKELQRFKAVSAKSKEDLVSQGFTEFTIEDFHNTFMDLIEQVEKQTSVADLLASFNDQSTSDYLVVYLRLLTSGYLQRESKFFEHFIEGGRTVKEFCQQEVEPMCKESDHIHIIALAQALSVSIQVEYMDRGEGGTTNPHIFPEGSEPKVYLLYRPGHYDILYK
UniProt Q7TQI3, residues 2-271: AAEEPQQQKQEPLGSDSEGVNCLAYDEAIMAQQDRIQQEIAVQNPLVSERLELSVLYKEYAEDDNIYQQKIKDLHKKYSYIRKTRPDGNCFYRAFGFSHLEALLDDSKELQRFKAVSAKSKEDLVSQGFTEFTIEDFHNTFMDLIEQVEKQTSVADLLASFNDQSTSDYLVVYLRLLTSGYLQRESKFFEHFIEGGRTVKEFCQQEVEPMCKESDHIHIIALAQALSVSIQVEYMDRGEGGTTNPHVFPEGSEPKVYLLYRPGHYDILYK
UniProt P10852: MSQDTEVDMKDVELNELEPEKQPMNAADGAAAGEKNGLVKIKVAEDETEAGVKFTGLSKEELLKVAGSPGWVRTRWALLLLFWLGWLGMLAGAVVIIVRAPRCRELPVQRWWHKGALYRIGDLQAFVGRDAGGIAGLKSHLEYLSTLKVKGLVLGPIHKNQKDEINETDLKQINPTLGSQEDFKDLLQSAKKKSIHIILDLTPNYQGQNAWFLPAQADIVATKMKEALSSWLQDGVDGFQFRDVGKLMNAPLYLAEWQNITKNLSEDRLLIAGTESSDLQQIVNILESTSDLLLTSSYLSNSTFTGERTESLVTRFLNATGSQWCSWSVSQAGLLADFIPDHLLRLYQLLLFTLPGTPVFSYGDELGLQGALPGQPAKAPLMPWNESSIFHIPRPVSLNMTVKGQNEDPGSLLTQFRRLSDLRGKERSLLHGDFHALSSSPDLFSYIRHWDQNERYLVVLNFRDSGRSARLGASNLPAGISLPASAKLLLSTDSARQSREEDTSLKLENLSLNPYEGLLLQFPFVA

[9] = target: T1, solute carrier family 7 member 11 (SLC7A11), endogenous in mouse tracheal epithelial (MTE) cells (mouse); experiment: co-immunoprecipitation from MTE cell lysates after IL1B (FIG. 3C); also found together in the ~120 kDa complex by 2D PAGE (FIG. 3B)

Measured: binding

SLC3A2 in H522 lung adenocarcinoma cells (from UniProt P08195 2-529)
not listed: [8] | [9]
binds: all other assays above

ovarian tumor deubiquitinase (OTUB1) in H522 lung adenocarcinoma cells (from UniProt Q96FW1 2-271) (enzyme)
binds: [1] | [4]

ovarian tumor deubiquitinase-1 (OTUB1), endogenous in mouse tracheal epithelial (MTE) cells (from UniProt Q7TQI3 2-271) (enzyme)
binds: [8] | [9]

solute carrier family 3 member 2 (SLC3A2), endogenous in mouse tracheal epithelial (MTE) cells (from UniProt P10852 1-526)
binds: [8] | [9]

— patent publication US20260027190A1, “OVARIAN TUMOR DEUBIQUITINASE OXIDATION AND USES THEREOF” (The University of Vermont and State Agricultural College, priority 2022, published 2026)
